Like-named read-outs stand apart in the source and are kept apart here. Results are given in words; binding and its absence hold for the method and conditions named. Binding seen in cells or lysates may run through a third protein. A result given as binding can be weak or reduced; the word gives no strength.
Legend:
Assay in all cases: co-IP
[1] = target: GFP-tagged Dhx15 (AAEL004419) (Aedes aegypti) (UniProt Q17CT5)
[2] = target: GFP-tagged AAEL004859 (Aedes aegypti)
[3] = target: GFP-tagged Dhx15 (AAEL004419) (Aedes aegypti) (UniProt Q17CT5); remark: listed apart in the source

Measured: binding

Flag-tagged AAEL008728 (from UniProt Q16XX2)
binds: [1] | [2] | [3]

Reference: paper doi:10.1101/2022.06.22.497281
